Results are given in words; binding and its absence hold for the method and conditions named. In cells and extracts the contact can be indirect. Some binding calls cover weakened binding; strength is not graded here.
Experiments:
[1] = target: FLAG-AID (UniProt Q9GZX7); test: co-IP
[2] = target: FLAG-Exosc3 (UniProt Q9NQT5); test: co-IP

Chains of the proteins cited; added tags and fusions are not shown.
UniProt Q9GZX7: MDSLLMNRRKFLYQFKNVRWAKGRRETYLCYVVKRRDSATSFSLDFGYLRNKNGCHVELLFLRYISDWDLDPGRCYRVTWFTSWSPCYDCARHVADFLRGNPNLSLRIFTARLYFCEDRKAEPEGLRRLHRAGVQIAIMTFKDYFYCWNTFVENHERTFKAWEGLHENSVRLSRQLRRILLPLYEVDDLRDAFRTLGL
UniProt Q9NQT5: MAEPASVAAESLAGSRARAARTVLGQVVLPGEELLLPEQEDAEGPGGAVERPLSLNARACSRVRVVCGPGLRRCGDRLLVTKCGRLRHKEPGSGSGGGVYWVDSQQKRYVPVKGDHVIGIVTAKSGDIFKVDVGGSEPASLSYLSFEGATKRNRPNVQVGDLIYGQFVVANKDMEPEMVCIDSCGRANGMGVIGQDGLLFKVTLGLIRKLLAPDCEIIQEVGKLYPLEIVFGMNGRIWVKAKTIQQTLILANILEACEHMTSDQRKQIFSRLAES
UniProt Q15024: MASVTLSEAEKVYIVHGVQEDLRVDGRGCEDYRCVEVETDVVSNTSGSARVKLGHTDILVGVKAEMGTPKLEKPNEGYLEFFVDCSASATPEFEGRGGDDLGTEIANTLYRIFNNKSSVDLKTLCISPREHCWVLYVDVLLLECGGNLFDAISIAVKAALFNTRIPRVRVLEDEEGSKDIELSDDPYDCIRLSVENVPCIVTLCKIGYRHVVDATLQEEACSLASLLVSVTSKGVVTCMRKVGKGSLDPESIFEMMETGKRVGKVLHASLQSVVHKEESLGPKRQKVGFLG
UniProt Q13868: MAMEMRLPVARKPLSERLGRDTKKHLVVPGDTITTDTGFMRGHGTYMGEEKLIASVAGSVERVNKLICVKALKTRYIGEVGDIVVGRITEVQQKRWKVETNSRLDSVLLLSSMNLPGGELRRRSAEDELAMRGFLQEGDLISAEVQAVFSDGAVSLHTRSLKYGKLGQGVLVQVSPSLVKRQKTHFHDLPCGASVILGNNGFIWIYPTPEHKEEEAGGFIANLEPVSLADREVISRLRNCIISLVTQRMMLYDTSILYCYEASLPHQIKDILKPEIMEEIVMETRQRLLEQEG

## GFP-Exosc7 (from UniProt Q15024 1-291)
[1]
  binding: binds
[2]
  binding: binds

## GFP-Exosc2 (from UniProt Q13868 1-293)
[1]
  binding: binds
[2]
  binding: binds

## Exosome component 3 (Exosc3) as found in the FLAG-AID precipitate of Fig 5A (from UniProt Q9NQT5 1-275)
[1]
  binding: binds

## GFP-Exosc3 (from UniProt Q9NQT5 1-275)
[1]
  binding: binds

## AID-GFP (from UniProt Q9GZX7 1-198) (enzyme)
[2]
  binding: binds

## activation-induced cytidine deaminase (AID) (from UniProt Q9GZX7 1-198) (enzyme)
[2]
  binding: binds

— publication PMC4383551
